No constants are given. Whether binding was seen depends on the method and setting. Binding seen in cells or lysates may run through a third protein. Some entries that bind do so weakly or less than the wild type.
Columns and labels:
[1] = molecular target: human Skp1 (endogenous, HeLa cells) (human) (UniProt P63208); assay: anti-Flag co-immunoprecipitation from transfected HeLa cells, immunoblot; endogenous partner
[2] = molecular target: human Skp1 (endogenous, HeLa cells) (human) (UniProt P63208); assay: anti-Flag co-immunoprecipitation from transfected HeLa cells, immunoblot
His-tagged Skp1 (human) = His-tagged Skp1 (human) (UniProt P63208); assay: pull-down of in vitro translated 35S-FBP on His-Skp1 Nickel-agarose beads, autoradiography

By UniProt entry, the sequences of proteins in these tests, tags left out. Where a name states a change or a piece, a line headed by the entry shows the natural chain unless it says otherwise. Residues count along the entry.
UniProt P63208: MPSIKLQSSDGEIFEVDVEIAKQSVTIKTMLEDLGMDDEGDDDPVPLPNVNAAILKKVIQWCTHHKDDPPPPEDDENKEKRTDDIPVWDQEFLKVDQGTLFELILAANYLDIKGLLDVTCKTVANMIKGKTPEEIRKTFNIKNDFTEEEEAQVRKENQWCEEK
human Skp1 (endogenous, HeLa cells): residues 2-163 of P63208
UniProt Q9Y297: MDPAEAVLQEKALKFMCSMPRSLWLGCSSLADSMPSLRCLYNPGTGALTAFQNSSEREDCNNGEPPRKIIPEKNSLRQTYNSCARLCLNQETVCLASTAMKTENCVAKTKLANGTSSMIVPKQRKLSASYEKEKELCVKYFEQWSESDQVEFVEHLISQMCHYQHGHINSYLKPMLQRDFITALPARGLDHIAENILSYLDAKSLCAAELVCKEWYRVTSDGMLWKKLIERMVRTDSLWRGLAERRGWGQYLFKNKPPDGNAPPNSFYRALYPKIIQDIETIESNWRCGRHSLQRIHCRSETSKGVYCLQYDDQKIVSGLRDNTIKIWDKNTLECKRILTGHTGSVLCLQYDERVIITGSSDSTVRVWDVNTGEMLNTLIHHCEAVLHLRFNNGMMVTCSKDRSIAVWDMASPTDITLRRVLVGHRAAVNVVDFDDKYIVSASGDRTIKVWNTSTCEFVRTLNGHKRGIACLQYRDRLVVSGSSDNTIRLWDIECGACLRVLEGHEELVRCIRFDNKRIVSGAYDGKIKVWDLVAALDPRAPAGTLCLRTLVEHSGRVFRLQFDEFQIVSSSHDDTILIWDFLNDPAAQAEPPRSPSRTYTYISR
UniProt Q9UKT5: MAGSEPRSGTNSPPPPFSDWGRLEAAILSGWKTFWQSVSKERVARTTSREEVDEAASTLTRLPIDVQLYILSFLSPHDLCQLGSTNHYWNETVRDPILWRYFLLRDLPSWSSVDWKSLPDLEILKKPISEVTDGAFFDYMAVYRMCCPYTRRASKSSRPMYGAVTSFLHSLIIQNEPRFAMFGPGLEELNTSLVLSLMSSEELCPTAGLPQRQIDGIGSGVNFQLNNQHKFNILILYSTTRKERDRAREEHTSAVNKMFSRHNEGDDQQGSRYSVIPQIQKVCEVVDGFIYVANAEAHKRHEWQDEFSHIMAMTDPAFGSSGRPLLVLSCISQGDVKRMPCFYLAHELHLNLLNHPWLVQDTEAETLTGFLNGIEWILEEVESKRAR

Row | binding [1] | binding [2] | binding (His-tagged Skp1 (human)) | Substance
1 | binds | binds |  | Flag-tagged FBP1 (from UniProt Q9Y297 1-605)
2 | binds | binds |  | Flag-tagged FBP4 (from UniProt Q9UKT5 1-387)
3 |  |  | binds | human F-box protein FBP1 (from UniProt Q9Y297 1-605)

Source: patent US20020123082A1
